Measured values reported in PubChem BioAssay AID1347076 (National Center for Advancing Translational Sciences (NCATS), 2019).
Screen size: about 400,000 compounds; about 13,000 (3.2%) were called active. Inconclusive results, whose numbers are uncertain, are shown with a selection of clear calls. The call rests on the fitted dose curve; in most records, active means well fitted cell-killing curve with a large enough effect; inconclusive means small, poorly fitted or top-dose-only effect, or effect the other way; inactive means flat fitted curve, though single readings scatter. Potencies of inconclusive entries are doubtful fits and often do not repeat.

Test: qHTS assay for MDR1-selective chemotherapeutics: Primary screen using the drug-selected MDR subline cells KB-V1; further: nearly all actives have a fitted effect of over 60% in size
Conditions: KB-V1 MDR cells viability, CellTiter-Glo, 72 h; activity change, negative = cytotoxicity: at 46.1 µM (top of the series)
Outline: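 Following 72 h at 37 degrees C with compound, KB-V1 cell viability was read by CellTiter-Glo luminescence, medium being phenol-red-free DMEM plus 10% FBS; concentration-response parameters came from normalized, curve-fitted qHTS data.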
On the % scale 0 is the no-effect control and ±100 the full control effect; potency means the concentration at half of the fitted maximal effect.

Q: For `Cc1nnc(SCC(=O)N2CCN(c3ccccc3)CC2)n1C1CC1`, which Potency is on record?
A: The Potency was inconclusive: 16.4 µM [cytotoxic, partial curve].

Q: Which “activity change, negative = cytotoxicity” value does the source give for `CC(C)(C)C(=O)CN1C(=O)NC(C)(Cc2ccc3c(c2)OCO3)C1=O` (stereo not drawn) here?
A: The value was inactive: -22.2%.

Q: Which “activity change, negative = cytotoxicity” value does the source give for `O=C(c1cc2ncc(CCCl)cn2n1)N1CCCCCC1` here?
A: Its value is inactive: 0.118%.

Q: With `CC(=O)Nc1ccccc1NS(=O)(=O)c1ccccc1[N+](=O)[O-]` as the compound, how does the Potency read?
A: The Potency was inconclusive: 29.1 µM [rising, single point].

Q: With `CS(=O)(=O)c1ccc(Nc2nc(C(N)Cc3ccc(C(F)(F)F)cc3)cs2)cc1` (stereo not drawn) as the compound, how does the Potency read?
A: Its Potency is inconclusive: 20.6 µM [cytotoxic, single point].

Q: For `Brc1ccc(-c2nnc(-c3ccco3)o2)cc1`, which Potency is on record?
A: Its Potency is inconclusive: 20.6 µM [cytotoxic, partial curve].

Q: Which “activity change, negative = cytotoxicity” value does the source give for `COc1ccccc1C(=O)Nc1ccnn1C1CCN(CCC(C)c2ccc(C)o2)CC1` (stereo not drawn) here?
A: The value was inactive: 10.8%.

Q: Which Potency does the source give for `COC(=O)CN(c1nc(C)c(Br)c(OC)n1)S(=O)(=O)c1ccc(C)cc1` here?
A: The Potency was inconclusive: 11.6 µM [cytotoxic, single point].

Q: Which Potency does the source give for `CCCCN=C1CC(C)(C)CC(=O)/C1=C(/O)CCCN1C(=O)c2ccccc2C1=O` here?
A: Its Potency is inconclusive: 4.11 µM [cytotoxic, partial curve, poor fit].

Q: For `CN1CCc2c(sc(NC(=O)c3ccc([N+](=O)[O-])o3)c2C(N)=O)C1`, which Potency is on record?
A: The Potency was inconclusive: 6.51 µM [cytotoxic, full curve].

Q: Which Potency does the source give for `COc1ccc(NC(=O)C(=O)Nc2cccc3ccccc23)c(OC)c1` here?
A: The Potency was inconclusive: 20.6 µM [rising, partial curve, poor fit].

Q: Which “activity change, negative = cytotoxicity” value does the source give for `O=C(NC1CCCC1)c1ccc(Br)c(S(=O)(=O)N2CCCCC2)c1` here?
A: Its value is inactive: -9.3%.

Q: For `CCn1c(=O)c(C(=O)NNC(=O)c2cccc(Cl)c2)c(O)c2ccccc21`, which Potency is on record?
A: The Potency was inconclusive: 23.1 µM [cytotoxic, single point].

Q: For `Cc1nc(NCCc2ccc(S(N)(=O)=O)cc2)c2c3c(sc2n1)CCC3`, which Potency is on record?
A: Its Potency is inconclusive: 16.4 µM [cytotoxic, single point].

Q: With `Cc1cc(C)cc(OC(=O)c2cc(-c3ccc(Cl)cc3)on2)c1` as the compound, how does the “activity change, negative = cytotoxicity” value read?
A: Its value is inactive: 14.6%.

Q: For `N#C/C(=C\c1ccc(O)c(O)c1)C(=O)N1CCc2ccccc21`, which Potency is on record?
A: Its Potency is inconclusive: 16.4 µM [cytotoxic, partial curve].

Q: For `CCc1ccc(NC(=O)CSc2nnc(CNC(=O)c3ccc(OC)cc3)o2)cc1`, which Potency is on record?
A: Its Potency is inconclusive: 18.4 µM [rising, single point].

Q: Which “activity change, negative = cytotoxicity” value does the source give for `CCCCC(=O)NC(NC(=S)N1CCOCC1)C(Cl)(Cl)Cl` (stereo not drawn) here?
A: Its value is inactive: 5.61%.

Q: For `Cc1cc(=O)n(Cc2ccc(F)cc2Cl)c2c1c(C)nn2C`, which Potency is on record?
A: Its Potency is inconclusive: 13 µM [rising, partial curve].

Q: With `Cc1cccc2sc(NNC(=O)c3cc(-c4cccs4)nc4ccccc34)nc12` as the compound, how does the Potency read?
A: The Potency was inconclusive: 20.6 µM [cytotoxic, single point].

Q: For `CC(C)c1ccc(-c2noc(SCC(=O)N3CCCCC3C)n2)cc1` (stereo not drawn), which “activity change, negative = cytotoxicity” value is on record?
A: Its value is inactive: -6.06%.

Q: Which Potency does the source give for `Cn1c(SCC(=O)Nc2ccc(Cl)cc2F)nnc1-c1ccco1` here?
A: The Potency was inconclusive: 13 µM [cytotoxic, partial curve].

Q: With `CC(=O)Nc1cc(-c2ccccc2F)cn2c(-c3cccc(C(F)(F)F)c3)cnc12` as the compound, how does the Potency read?
A: Its Potency is inconclusive: 32.6 µM [cytotoxic, single point].

Q: With `CNc1ccc(/C=C/c2ccnc3ccccc23)cc1` as the compound, how does the Potency read?
A: The Potency was inconclusive: 29.1 µM [cytotoxic, single point].

Q: For `COc1ccc(NC(=S)NC(C)c2ccncc2)cc1OC` (stereo not drawn), which Potency is on record?
A: Its Potency is inconclusive: 29.1 µM [rising, single point].

Q: Which Potency does the source give for `COc1cc(C=O)ccc1OCC(=O)Nc1ccc2c(c1)OCO2` here?
A: Its Potency is inconclusive: 18.4 µM [rising, single point].

Q: Which “activity change, negative = cytotoxicity” value does the source give for `COc1ccc(C(CCN2CCCCC2)c2c(OC)cc(OC)c3c(-c4ccccc4)cc(=O)oc23)cc1` (stereo not drawn) here?
A: Its value is inactive: 0%.

Q: Which Potency does the source give for `O=C(Nc1ccnn1C1CCN(Cc2ccc(CO)o2)CC1)c1ccccc1` here?
A: Its Potency is inconclusive: 29.1 µM [rising, single point].

Q: Which Potency does the source give for `O=C(N[C@@H](Cc1ccccc1)C(=O)N1CCC2(CC1)NCCc1[nH]cnc12)c1cccc(F)c1` here?
A: The Potency was inconclusive: 0.0073 µM [cytotoxic, full curve, poor fit].

Q: For `CC(C)c1cc(Cn2c3ccccc3c(=O)n2C(C)Cn2cc(C3=CCCCC3)nn2)on1` (stereo not drawn), which Potency is on record?
A: The Potency was inconclusive: 2.31 µM [cytotoxic, full curve].

Q: With `Cc1ccc(O)c(C(=O)c2coc(=N)c(C(=O)NC(C)C)c2)c1` as the compound, how does the Potency read?
A: Its Potency is inconclusive: 14.6 µM [cytotoxic, partial curve].

Q: For `CCc1nc2c(c(=O)c3ccccc3n2C)c(=O)n1-c1ccc(F)cc1`, which Potency is on record?
A: The Potency was inconclusive: 18.4 µM [cytotoxic, partial curve].

Q: With `OCC[C@H]1C[C@H](O)[C@@H](O)[C@@]2(OCCCc3ccccc32)O1` as the compound, how does the “activity change, negative = cytotoxicity” value read?
A: Its value is inactive: 20.2%.

Q: For `Cc1cc(-c2n[nH]c(=S)n2/N=C/c2cc([N+](=O)[O-])ccc2Cl)n[nH]1`, which Potency is on record?
A: The Potency was inconclusive: 32.6 µM [cytotoxic, partial curve, poor fit].

Q: For `CCc1ccc(CN(C)C(=O)c2cc(COc3cccc4cnccc34)on2)cc1`, which “activity change, negative = cytotoxicity” value is on record?
A: The value was inactive: -60.3%.

Q: For `O=S(=O)(c1ccc(F)cc1)N1CN(Cc2ccco2)c2nc3ccccc3nc21`, which Potency is on record?
A: Its Potency is inconclusive: 32.6 µM [cytotoxic, partial curve, poor fit].

Q: Which Potency does the source give for `O=C(Nc1ccc(-c2nc3ccccc3o2)c(O)c1)c1ccccc1` here?
A: Its Potency is inconclusive: 29.1 µM [rising, single point].

Q: For `C(=C\c1ccccc1)/CN1CCN(C(c2nnnn2Cc2ccccc2)C2CC2)CC1` (stereo not drawn), which Potency is on record?
A: The Potency was inconclusive: 20.6 µM [cytotoxic, partial curve].

Q: For `Cc1ccc(-c2nnc(Nc3ccc(C(N)=O)cc3)c3ccccc23)cc1S(N)(=O)=O`, which Potency is on record?
A: Its Potency is inconclusive: 25.9 µM [rising, single point].

Q: For `CCN(CC)CCN1C(=O)C2C(C(=O)Nc3cccc(SC)c3)C3C=CC2(O3)C1C(=O)NC1CCCC(C)C1C` (stereo not drawn), which Potency is on record?
A: The Potency was inconclusive: 23.1 µM [rising, single point].

Q: With `Cc1cc(C)cc(NC(=O)CN2CCCN(S(=O)(=O)c3ccc(Br)s3)CC2)c1` as the compound, how does the Potency read?
A: The Potency was active: 2.91 µM.

Q: With `Cc1sc(-c2cc3ccccc3oc2=O)nc1-c1ccc(Cl)c(Cl)c1` as the compound, how does the Potency read?
A: Its Potency is inconclusive: 29.1 µM [rising, single point].

Q: With `CC1CCN(c2nc(-c3ccncc3)nc3ccccc23)CC1` as the compound, how does the Potency read?
A: The Potency was inconclusive: 18.4 µM [cytotoxic, partial curve, poor fit].

Q: For `Oc1ccc(C[C@H]2CNC(=S)N2CC2CCCN2C[C@H](Cc2ccccc2)N2C[C@H](Cc3ccc(O)cc3)N(CC3CCCCC3)C2=S)cc1` (stereo partly drawn), which Potency is on record?
A: The Potency was inconclusive: 29.1 µM [cytotoxic, single point].

Q: With `Cc1ccn2nc(C(=O)OCC(=O)N(CC(C)C)C3CCS(=O)(=O)C3)nc2n1` (stereo not drawn) as the compound, how does the Potency read?
A: Its Potency is inconclusive: 23.1 µM [rising, single point].

Q: For `Cc1ccc(Cc2cnc(NC(=O)CN3CCOCC3)s2)cc1Cl`, which Potency is on record?
A: Its Potency is inconclusive: 29.1 µM [cytotoxic, single point].

Q: For `COc1ccc(C)cc1NC(=O)Nc1cc(C(=O)NCc2ccc(C)cc2)ccc1N1CCCC1`, which Potency is on record?
A: The Potency was inconclusive: 20.6 µM [rising, single point].

Q: Which “activity change, negative = cytotoxicity” value does the source give for `Cc1cc2c(c(C)c1CCO)C(=O)[C@H](C)C2` here?
A: Its value is inactive: -18.3%.

Q: For `CCOc1cc(C(=O)NC(C)C2CC3CCC2C3)cc(OCC)c1OCC` (stereo not drawn), which “activity change, negative = cytotoxicity” value is on record?
A: The value was inactive: -10.1%.

Q: With `CCOc1ccccc1OCCCCn1c(-c2ccc(Cl)cc2)nc2ccccc2c1=O` as the compound, how does the “activity change, negative = cytotoxicity” value read?
A: The value was inactive: 3.09%.

Q: Which Potency does the source give for `CCOc1ccc(CNCc2c(C(=O)O)c(C)n(Cc3ccc(C)cc3)c2C)cc1` here?
A: Its Potency is inconclusive: 29.1 µM [cytotoxic, single point].

Q: For `Cc1nnc(N2CCCC(C(=O)NCCN(C)C)C2)c2nn(-c3ccccc3)c(C)c12` (stereo not drawn), which Potency is on record?
A: The Potency was inconclusive: 29.1 µM [rising, single point].

Q: For `CCCCN1C(=O)c2ccc(C(=O)Nc3ccc(C)c(S(=O)(=O)N(C)C)c3)cc2C1=O`, which Potency is on record?
A: Its Potency is active: 11.6 µM.

Q: Which Potency does the source give for `CCCCN(C(=O)c1ccc2c(c1)OCO2)c1ccccc1` here?
A: The Potency was inconclusive: 18.4 µM [cytotoxic, single point].

Q: With `CCN(Cc1ccccc1)S(=O)(=O)c1cc(C(=O)c2c(N)n(C)c(=O)n(C)c2=O)ccc1OC` as the compound, how does the “activity change, negative = cytotoxicity” value read?
A: The value was inactive: 16.2%.

Q: For `CCOC(=O)C1=CCN(S(=O)(=O)c2ccc(C)cc2)C1c1cccc2ccccc12` (stereo not drawn), which Potency is on record?
A: Its Potency is inconclusive: 29.1 µM [cytotoxic, partial curve, poor fit].

Q: For `COCCCNC(=S)Nc1ccc2c(c1)OCCO2`, which Potency is on record?
A: The Potency was inconclusive: 16.4 µM [rising, single point].

Q: With `CC[C@]1(c2ccccc2)C(=O)N(C(=O)OC)N1C(=O)OC` as the compound, how does the “activity change, negative = cytotoxicity” value read?
A: Its value is inactive: -19.5%.

Q: Which Potency does the source give for `O=C(Nc1ccc(Cl)c(C(F)(F)F)c1)c1ccco1` here?
A: Its Potency is inconclusive: 18.4 µM [cytotoxic, partial curve, poor fit].

Q: Which Potency does the source give for `Cc1cc(NC(=S)NC(=O)c2ccccc2)ccc1-c1cc2ccccc2oc1=O` here?
A: The Potency was inconclusive: 3.26 µM [cytotoxic, full curve].

Q: Which “activity change, negative = cytotoxicity” value does the source give for `CCOC(=O)CCC1(C(=O)OC)C(=O)CCCCCC=C1C(=O)OC` (stereo not drawn) here?
A: Its value is inactive: -17.5%.

Q: Which “activity change, negative = cytotoxicity” value does the source give for `N#C/C(=C(/O)COc1ccccc1)c1nc2ccccc2s1` here?
A: Its value is inactive: -71.8%.

Q: With `Cc1cc(C)n(C(C)CC(=O)Nc2cccc(C#N)c2)n1` (stereo not drawn) as the compound, how does the “activity change, negative = cytotoxicity” value read?
A: Its value is inactive: 0.364%.

Q: Which “activity change, negative = cytotoxicity” value does the source give for `Cc1ccc(/C=N/NC(=O)c2nnn(-c3nonc3N)c2C(C)C)s1` here?
A: Its value is inactive: 7.1%.

Q: Which “activity change, negative = cytotoxicity” value does the source give for `COc1ccc(-c2nc(CN3CCN(c4cc(C)nc(C)c4)CC3)c(C)o2)c2ccccc12` here?
A: Its value is inactive: -6.78%.

Q: With `O=C(COc1ccccc1[N+](=O)[O-])N/N=C/c1ccccn1` as the compound, how does the “activity change, negative = cytotoxicity” value read?
A: The value was inactive: -5.44%.

Q: For `CCOC(=O)N1CCC(N(C(=O)Nc2cccc(OC)c2)C(C)CC)CC1` (stereo not drawn), which Potency is on record?
A: Its Potency is active: 18.4 µM.

Q: With `O=C(Nc1ccccc1C(=O)NC1CC1)c1ccccc1` as the compound, how does the Potency read?
A: Its Potency is inconclusive: 16.4 µM [cytotoxic, single point].
